The other results are listed elsewhere or left out.
Key:
Assay in all cases: log2 fold change, soluble protein after heating vs DMSO (PISA); higher = thermal stabilisation; K562 lysate, 10 uM; active = over 0.2 and 3.5 SD of the protein, either way, in both replicates (recomputed)
[1] = compound: NCC(=O)Nc1ccc(-n2nc(C(F)(F)F)cc2-c2ccc3c(ccc4ccccc43)c2)cc1
Summary of the method: (§1)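 K562 pellets were dounce-homogenised in PBS pH 7.4 containing 1 mM MgCl2, and the crude extract, at 1 mg/mL protein, was exposed to 10 μM compound for 30 min. Aliquots were heated for 3 min across 48°C-58°C, pooled, brought to 0.5% NP-40 at 4°C and spun at 21,000xg for 90 min, with the supernatant taken as soluble protein. TMTpro 16plex LC-MS/MS with equalised channel sums quantified that protein. Values are log-two fold changes in thermal stability relative to solvent controls, taken from duplicates.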

By UniProt entry, the sequences of proteins in these tests, tags left out. Where a name states a change or a piece, a line headed by the entry shows the natural chain unless it says otherwise.
UniProt Q9NPA3, whole entry, looked up: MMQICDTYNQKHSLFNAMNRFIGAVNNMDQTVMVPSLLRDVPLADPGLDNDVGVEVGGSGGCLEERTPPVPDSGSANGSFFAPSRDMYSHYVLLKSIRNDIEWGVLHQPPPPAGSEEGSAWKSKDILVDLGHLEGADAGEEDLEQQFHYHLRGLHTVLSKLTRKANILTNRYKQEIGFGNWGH
UniProt Q70IA6: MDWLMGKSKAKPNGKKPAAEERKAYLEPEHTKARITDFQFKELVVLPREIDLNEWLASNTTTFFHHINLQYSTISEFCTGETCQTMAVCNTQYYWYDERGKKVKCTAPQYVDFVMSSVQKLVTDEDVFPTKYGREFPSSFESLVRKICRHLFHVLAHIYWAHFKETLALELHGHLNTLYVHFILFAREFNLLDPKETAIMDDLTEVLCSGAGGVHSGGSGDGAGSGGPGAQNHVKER
UniProt O14880: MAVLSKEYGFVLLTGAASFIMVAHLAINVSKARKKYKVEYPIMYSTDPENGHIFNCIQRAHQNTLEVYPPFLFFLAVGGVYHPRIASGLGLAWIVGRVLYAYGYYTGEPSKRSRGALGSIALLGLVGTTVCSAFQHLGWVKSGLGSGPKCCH
UniProt O94851, whole entry, looked up: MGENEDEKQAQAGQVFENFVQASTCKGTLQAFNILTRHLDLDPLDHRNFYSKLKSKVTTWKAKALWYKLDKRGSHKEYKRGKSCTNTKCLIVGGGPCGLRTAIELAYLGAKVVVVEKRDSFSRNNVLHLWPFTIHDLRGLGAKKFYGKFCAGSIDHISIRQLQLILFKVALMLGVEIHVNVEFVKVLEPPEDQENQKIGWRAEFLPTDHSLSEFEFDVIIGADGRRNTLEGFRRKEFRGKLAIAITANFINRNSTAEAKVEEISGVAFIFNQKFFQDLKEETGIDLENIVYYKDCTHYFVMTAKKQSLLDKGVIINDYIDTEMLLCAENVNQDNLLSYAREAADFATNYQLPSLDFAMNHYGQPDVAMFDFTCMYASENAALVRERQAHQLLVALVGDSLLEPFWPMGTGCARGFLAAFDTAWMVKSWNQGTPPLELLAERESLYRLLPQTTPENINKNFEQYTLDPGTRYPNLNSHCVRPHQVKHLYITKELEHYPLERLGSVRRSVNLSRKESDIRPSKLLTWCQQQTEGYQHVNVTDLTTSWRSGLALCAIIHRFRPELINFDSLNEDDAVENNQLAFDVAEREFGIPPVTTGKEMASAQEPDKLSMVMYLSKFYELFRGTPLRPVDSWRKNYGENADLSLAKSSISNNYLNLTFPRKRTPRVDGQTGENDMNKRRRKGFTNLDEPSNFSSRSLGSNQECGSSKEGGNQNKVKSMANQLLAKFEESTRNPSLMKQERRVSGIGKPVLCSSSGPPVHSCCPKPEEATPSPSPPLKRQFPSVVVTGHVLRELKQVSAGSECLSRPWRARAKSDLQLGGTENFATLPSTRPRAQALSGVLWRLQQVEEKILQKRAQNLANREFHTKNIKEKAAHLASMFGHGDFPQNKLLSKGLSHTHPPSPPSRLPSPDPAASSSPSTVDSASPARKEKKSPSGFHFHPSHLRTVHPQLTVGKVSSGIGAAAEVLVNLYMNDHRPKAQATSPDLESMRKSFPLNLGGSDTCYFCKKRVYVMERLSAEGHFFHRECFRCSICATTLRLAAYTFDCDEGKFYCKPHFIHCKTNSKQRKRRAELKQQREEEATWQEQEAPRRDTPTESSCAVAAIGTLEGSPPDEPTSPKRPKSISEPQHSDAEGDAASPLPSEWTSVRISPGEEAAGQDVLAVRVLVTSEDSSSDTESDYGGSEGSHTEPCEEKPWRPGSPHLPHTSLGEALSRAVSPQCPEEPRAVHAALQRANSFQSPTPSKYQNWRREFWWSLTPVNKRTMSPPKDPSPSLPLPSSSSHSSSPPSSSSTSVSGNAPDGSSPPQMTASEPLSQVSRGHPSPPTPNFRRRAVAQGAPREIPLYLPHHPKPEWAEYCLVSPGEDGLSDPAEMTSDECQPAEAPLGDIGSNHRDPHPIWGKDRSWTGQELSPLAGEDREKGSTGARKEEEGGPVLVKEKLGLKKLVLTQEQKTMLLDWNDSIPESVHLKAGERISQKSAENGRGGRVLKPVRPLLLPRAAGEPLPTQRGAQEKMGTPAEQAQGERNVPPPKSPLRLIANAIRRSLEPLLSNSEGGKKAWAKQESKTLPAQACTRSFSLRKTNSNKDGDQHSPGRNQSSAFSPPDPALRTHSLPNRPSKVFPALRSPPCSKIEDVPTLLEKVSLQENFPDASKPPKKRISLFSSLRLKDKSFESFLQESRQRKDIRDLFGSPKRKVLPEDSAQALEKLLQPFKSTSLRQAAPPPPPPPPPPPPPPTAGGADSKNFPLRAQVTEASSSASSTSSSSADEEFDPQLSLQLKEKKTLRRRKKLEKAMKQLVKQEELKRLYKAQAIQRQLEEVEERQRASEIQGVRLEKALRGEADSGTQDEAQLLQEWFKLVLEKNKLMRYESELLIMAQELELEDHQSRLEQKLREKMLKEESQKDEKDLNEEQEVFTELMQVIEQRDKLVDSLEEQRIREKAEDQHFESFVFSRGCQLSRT
UniProt Q9BV20: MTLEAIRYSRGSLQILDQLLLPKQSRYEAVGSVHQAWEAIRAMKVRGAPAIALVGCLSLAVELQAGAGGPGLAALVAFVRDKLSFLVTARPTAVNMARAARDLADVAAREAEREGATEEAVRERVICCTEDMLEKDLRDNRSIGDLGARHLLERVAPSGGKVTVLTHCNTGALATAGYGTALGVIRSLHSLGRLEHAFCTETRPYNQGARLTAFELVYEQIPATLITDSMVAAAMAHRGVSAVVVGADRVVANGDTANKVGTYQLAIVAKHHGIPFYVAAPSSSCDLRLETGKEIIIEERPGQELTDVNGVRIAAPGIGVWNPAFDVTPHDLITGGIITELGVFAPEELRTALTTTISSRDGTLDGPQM
UniProt Q9NZW5: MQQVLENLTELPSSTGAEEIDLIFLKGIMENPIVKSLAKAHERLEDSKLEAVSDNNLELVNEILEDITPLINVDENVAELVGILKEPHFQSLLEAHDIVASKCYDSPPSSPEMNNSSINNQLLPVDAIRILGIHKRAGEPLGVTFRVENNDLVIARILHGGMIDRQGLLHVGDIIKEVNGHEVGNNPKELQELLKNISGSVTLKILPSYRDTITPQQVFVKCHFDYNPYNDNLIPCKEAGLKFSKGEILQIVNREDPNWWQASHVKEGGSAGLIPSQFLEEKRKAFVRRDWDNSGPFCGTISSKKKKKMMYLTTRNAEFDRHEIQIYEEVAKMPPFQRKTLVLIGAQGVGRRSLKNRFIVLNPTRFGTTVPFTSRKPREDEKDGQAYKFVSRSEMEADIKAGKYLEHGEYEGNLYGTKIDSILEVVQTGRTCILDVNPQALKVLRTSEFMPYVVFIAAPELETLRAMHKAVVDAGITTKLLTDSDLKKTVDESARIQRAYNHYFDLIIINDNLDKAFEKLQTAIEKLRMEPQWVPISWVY
UniProt Q9NYP9: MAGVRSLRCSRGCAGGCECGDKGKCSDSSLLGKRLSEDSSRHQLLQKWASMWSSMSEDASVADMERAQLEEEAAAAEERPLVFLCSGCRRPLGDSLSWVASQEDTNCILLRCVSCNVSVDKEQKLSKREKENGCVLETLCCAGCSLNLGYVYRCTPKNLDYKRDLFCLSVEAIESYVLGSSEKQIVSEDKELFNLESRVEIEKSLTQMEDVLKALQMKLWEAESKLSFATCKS

vorinostat = compound: O=C(CCCCCCC(=O)Nc1ccccc1)NO [vorinostat]
Summary of the method: as §1

silmitasertib = compound: O=C(O)c1ccc2c(c1)nc(Nc1cccc(Cl)c1)c1ccncc12 [silmitasertib]
Summary of the method: as §1

[2] = compound: O=C1NC(=O)C(c2cnc3ccccn23)=C1c1cn2c3c(cc(F)cc13)CN(C(=O)N1CCCCC1)CC2
Summary of the method: as §1

entospletinib = compound: c1cn2cc(-c3ccc4cn[nH]c4c3)nc(Nc3ccc(N4CCOCC4)cc3)c2n1 [entospletinib]
Summary of the method: as §1

Measured: log2 fold change

MID1IP1 (UniProt Q9NPA3)
inactive: [1] 0 | vorinostat -0.229 | silmitasertib -0.067 | [2] 0.008 | entospletinib 0.038

MOB2 isoform 3 (UniProt Q70IA6)
inactive: [1] -0.083 | vorinostat -0.03 | silmitasertib 0.009 | [2] 0.012 | entospletinib 0

MRPL16 (UniProt Q9NX20)
inactive: [1] 0.093 | vorinostat -0.216 | silmitasertib 0.125 | [2] -0.037 | entospletinib 0.087

MGST3 (UniProt O14880)
inactive: [1] -0.025 | vorinostat 0.128 | silmitasertib 0 | [2] 0.033 | entospletinib 0.041

MRPL13 (UniProt Q9BYD1)
inactive: [1] -0.027 | vorinostat 0.149 | silmitasertib 0.018 | [2] 0.004 | entospletinib 0.016

MICAL2 (UniProt O94851)
inactive: [1] -0.083 | vorinostat -0.174 | silmitasertib 0.058 | [2] -0.004

MRI1 (UniProt Q9BV20)
inactive: [1] 0.03 | vorinostat -0.021 | silmitasertib 0.01 | [2] 0.025 | entospletinib 0.032

MPP6 (UniProt Q9NZW5)
inactive: [1] -0.017 | vorinostat 0.059 | silmitasertib 0.019 | [2] 0.023 | entospletinib -0.013

MIS18A (UniProt Q9NYP9)
inactive: [1] -0.036 | vorinostat -0.206 | silmitasertib 0.025 | [2] -0.008 | entospletinib 0.024
